According to PubChem BioAssay AID1347076 (National Center for Advancing Translational Sciences (NCATS), 2019):
Screen size: about 400,000 compounds; about 13,000 (3.2%) were called active. Inconclusive results, whose numbers are uncertain, are shown with a selection of clear calls. The call rests on the fitted dose curve; in most records, active means well fitted cell-killing curve with a large enough effect; inconclusive means small, poorly fitted or top-dose-only effect, or effect the other way; inactive means flat fitted curve, though single readings scatter. A potency beside an inconclusive call is a rough fit, not a confirmed value.

Assay: qHTS assay for MDR1-selective chemotherapeutics: Primary screen using the drug-selected MDR subline cells KB-V1; further: nearly all actives have a fitted effect of over 60% in size
Details: KB-V1 MDR cells viability, CellTiter-Glo, 72 h; activity change, negative = cytotoxicity: at 46.1 µM (top of the series)
Procedure, shortened: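 Potencies derive from concentration-effect curves fitted to normalized luminescence (CellTiter-Glo) of KB-V1 cells treated for 72 h at 37 degrees C in phenol-red-free DMEM containing 10% FBS.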
On the % scale 0 is the no-effect control and ±100 the full control effect; potency means the concentration at half of the fitted maximal effect.

SMILES | Potency | activity change, negative = cytotoxicity
CSc1nc(SCCN(C)C)c2c3c(sc2n1)COC(C)(C)C3 | inconclusive: 13 µM [cytotoxic, partial curve, poor fit] | –
NC(=O)c1ccsc1NC(=O)c1nc(-c2ccccc2)n(-c2ccccc2)n1 | inconclusive: 29.1 µM [cytotoxic, single point] | –
OC[C@H]1O[C@H](OC[C@H]2O[C@H](OC[C@H]3O[C@H](O[C@]4(CO)O[C@H](CO)[C@@H](O)[C@@H]4O)[C@H](O)[C@@H](O)[C@@H]3O)[C@H](O)[C@@H](O)[C@H]2O)[C@H](O)[C@@H](O)[C@H]1O | inactive | –
COC(=O)N/N=C(\C)c1ccc(OC(F)F)cc1 | inconclusive: 29.1 µM [cytotoxic, single point] | –
COCCNC(=O)c1ccc2c(c1)ncn2-c1cccc(C)c1 | inconclusive: 25.9 µM [cytotoxic, single point] | –
O=C(O)Cc1ccc(C(=O)CSc2ccccc2)s1 | inconclusive: 20.6 µM [rising, partial curve, poor fit] | –
Cc1ccccc1C(=O)Nc1ccccc1-c1nnn(CC(=O)Nc2ccc3c(c2)OCCO3)n1 | active: 3.66 µM | –
CNc1c([N+](=O)[O-])cnn1-c1ccc(C)cc1 | inconclusive: 16.4 µM [cytotoxic, single point] | –
COc1ccc(/C=C(/NC(=O)c2ccc(OC)c(OC)c2)C(=O)NCCc2c[nH]c3ccccc23)cc1 | inconclusive: 23.1 µM [cytotoxic, partial curve, poor fit] | –
OC[C@@H]1CN(Cc2ccco2)C[C@H](n2cnc3c(NCc4ccncc4)ncnc32)O1 | inactive | –
CCN(C(=O)c1c(-c2ccccc2Cl)noc1C)C1CCCCC1 | inconclusive: 9.2 µM [cytotoxic, partial curve] | –
Cc1nc(C(=O)NNC(=O)c2ccc(Cl)cc2)c(C(F)(F)F)o1 | inconclusive: 29.1 µM [cytotoxic, single point] | –
COc1cccc(NS(=O)(=O)c2ccc3c(c2)N(C)C(=O)CC(=O)N3C)c1 | inconclusive: 29.1 µM [rising, single point] | –
COc1ccc(C)cc1NC(=O)c1cn(C)c(=O)c2cc(OC)c(OC)cc12 | inactive | –
CCOc1ccccc1N(C)C(=O)Cn1ncc2c([nH]c3ccc(C)cc32)c1=O | inconclusive: 18.4 µM [cytotoxic, single point] | –
Cc1cc(S(=O)(=O)Nc2ccc(C(=O)O)cc2)c(C)c(S(=O)(=O)c2ccc(Cl)cc2)c1 | inconclusive: 20.6 µM [rising, single point] | –
CCCCC#Cc1cncc(C(=O)NN)c1 | inactive | –
Cc1nn(-c2ccccc2)c(C)c1/C=N/NC(=O)c1cc(-c2ccc(Cl)s2)[nH]n1 | active: 11.6 µM | –
CN1CCN(c2ccc3c(c2)OC[C@H](Cc2ccccc2)NS3(=O)=O)CC1 | – | inconclusive: 0%
O=C(O)CCNS(=O)(=O)c1cccc(Br)c1 | inconclusive: 29.1 µM [rising, single point] | –
Cc1ccc(C2(c3noc(CN(C)Cc4cccnc4)n3)CCCC2)cc1 | inconclusive: 7.31 µM [cytotoxic, partial curve] | –

SMILES | Potency | activity change, negative = cytotoxicity
O=Cc1cc(Br)c(OC(=O)N2CCOCC2)c(Br)c1 | inactive | –
O=[N+]([O-])c1nc2ccccc2[nH]1 | active: 18.4 µM | –
CCc1ccccc1NC(=O)N1CC(C)Sc2ccccc21 (configuration not stated) | inactive | –
C/C=C\C=C\C(=O)Nc1cccc(C2=NOC3(C2)C[C@@H](C(N)=O)N(C(=O)C(c2ccccc2)c2ccccc2)C3)c1 (some centres not stated) | inconclusive: 18.4 µM [rising, single point] | –
O=C(NCCCN1CCN(Cc2ccccc2)CC1)c1nnc(Cc2c(F)cccc2Cl)o1 | inconclusive: 7.31 µM [cytotoxic, partial curve] | –
O=S(=O)(Nc1ccc(Cc2ccncc2)cc1)c1ccc(Cl)c(Cl)c1 | active: 5.8 µM | –
Cc1cc(C(=O)OCC(=O)NC(C)c2ccc(F)cc2)c(C)o1 (configuration not stated) | inconclusive: 18.4 µM [cytotoxic, single point] | –
O=C(O)c1cccc(NC2=C(Cl)C(=O)c3ccccc3C2=O)c1 | inconclusive: 0.259 µM [cytotoxic, full curve] | –
CC(=O)c1ccc(NC(=O)c2nc(-c3ccccc3)n(-c3ccccc3)n2)cc1 | inconclusive: 29.1 µM [cytotoxic, single point] | –
COc1cc(OC)c(NS(=O)(=O)c2ccc(Cl)c(C(=O)OC(C)C(=O)N3CCCC3)c2)cc1Cl (configuration not stated) | active: 2.31 µM | –
CC1(C(=O)NCCc2ccccc2)Cc2c(-c3cccc(C(F)(F)F)c3)ccnc2O1 (configuration not stated) | inconclusive: 29.1 µM [cytotoxic, single point] | –
O=C(Nc1ccc(Br)cc1F)N1CC=C(c2c[nH]c3ccccc23)CC1 | inconclusive: 3.66 µM [cytotoxic, full curve] | –
CCOC(=O)Cn1cnc(-c2ccc([N+](=O)[O-])cc2)c1 | inactive | –
COC(=O)c1ccccc1NC(=O)c1cc2nc(C3CC3)cc(C(F)(F)F)n2n1 | inconclusive: 25.1 µM [cytotoxic, single point] | –
COc1ccc(NC(=O)CN(C)C(=O)CSCc2c(C)noc2C)cc1 | inconclusive: 14.6 µM [cytotoxic, single point] | –
C=CCn1c(O)c(N=Nc2ccccc2C)c2ccccc21 | inconclusive: 20.6 µM [cytotoxic, single point] | –
O=C(c1cc(-c2cccnc2)nc2ccc(Cl)cc12)N1CCN(S(=O)(=O)c2cccs2)CC1 | inconclusive: 9.2 µM [cytotoxic, partial curve, poor fit] | –
COc1ccc(N2C(=O)Cc3cc(OC)c(OC)cc3C2c2ccc(F)cc2)cc1 (configuration not stated) | inactive | –
CC(CNC(=O)c1ccc(C#N)cc1)NC(=O)c1ccc(C#N)cc1 (configuration not stated) | inconclusive: 29.1 µM [rising, single point] | –
COCCCN1C(=O)C(CC(=O)NCCc2ccccn2)CC(C(=O)N2CCOCC2)=C1C (configuration not stated) | inconclusive: 29.1 µM [rising, single point] | –
COc1ccc(CNC(=O)CN2C(=O)CCn3nc(-c4ccccc4)cc32)c(OC)c1 | – | inconclusive: 32.7%

Some values from the results shown:
Value for Cc1ccc(C2(c3noc(CN(C)Cc4cccnc4)n3)CCCC2)cc1 under Potency: inconclusive: 7.31 µM [cytotoxic, partial curve]
Value for O=S(=O)(Nc1ccc(Cc2ccncc2)cc1)c1ccc(Cl)c(Cl)c1 under Potency: active: 5.8 µM
